Source: US9328057B2, “Chiral arylketones in the treatment of neutrophil-dependent inflammatory diseases” (DOMPE' FARMACEUTICI S.P.A., priority 2002, dated 2016)
Some entries share one result that the patent states for a list of compounds.

Test system: chemiotaxis of human PMN leucocytes (PMNs) stimulated by interleukin 8
Assay: chemiotaxis of human PMNs stimulated by IL-8 (48-well microchamber)
Type: cell-based
Details: concentration of 10^−8 M; as compared to control values; IL-8 10 ng/mL
Experimental: For evaluation of the compounds of the invention, polymorphonucleated blood cells were used obtained from heparinized blood of healthy adult volunteers by means of sedimentation on dextran. The mononucleated cells were removed by means of Ficoll/Hypaque, whilst the red blood cells were eliminated by treatment with hypotonic solutions. The cell vitality of the polymorphonucleated leucocytes (PMNs) was calculated by means of exclusion with Turk and Trypan Blue whilst after staining with Diff Quinck the percentage of the PM-nucleates on the cytocentrifugate was estimated (for details of the experimental techniques used see W. J. Ming et al., J. Immunol., 138, 1469, 1987). In each of the in vitro experiments, time periods of 10 minutes were used for the incubation of the PMNs with the compounds of the invention, operating at a temperature of 37° C.
In the experiments of chemiotaxis and in those designed for measuring the cytosol levels of the Ca^2+ ion, human recombinant IL-8 (Pepro Tech.) was used as stimulant: the liophilized protein was dissolved in HBSS (Hank's balanced salts solution) at a concentration of 100 ng/mL and was used after dilution in HBSS down to concentrations of 10 ng/mL in the chemiotaxis experiments and at the concentration of 25-50 ng/mL in the evaluation of the modifications of [Ca^2+]. […]

`COC(=O)CC(=O)[C@H](C)c1cccc(C(=O)c2ccccc2)c1` [methyl (R) (−)-4-[(3′-benzoyl)phenyl]-3-oxopentanoate] was tested. Which “inhibition of the chemiotaxis of human neutrophils” value did it give?
Its value is “higher than 50%”.

Which “inhibition of the chemiotaxis of human neutrophils” value does the source give for `COC(=O)CC(=O)[C@H](C)c1ccc(CC(C)C)cc1` [methyl (R)(−)-4-[(4′-isobutyl)phenyl]-3-oxopentanoate] here?
The value was “higher than 50%”.
